No constants are given. Whether binding was seen depends on the method and setting. Some binding calls cover weakened binding; strength is not graded here.
Columns and labels:
[1] = target: 6xHis-eGFP-hnRNPK fusion (full-length wild-type hnRNPK) (UniProt P61978); assay: X-ray diffraction of a hydrogel + SEM; eGFP-hnRNPK concentrated to 11.5 mg/mL, dialysed in 50 mM HEPES, 300 mM KCl, pH 7.4 at 4 °C overnight; hydrogel kept 48 h at 4 °C; both purified
[2] = target: Heterogeneous nuclear ribonucleoprotein K (hnRNPK), full-length wild type with an additional N-terminal glycine (UniProt P61978); assay: condition: only sample kept at 4 °C and at low protein concentration; SEC-MALS; SEC-LS (RALS, RI, UV) on Superdex 200 Increase 10/300 run at room temperature; hnRNPK sample kept at 4 °C (vial holder at 4 °C), low concentration; both purified

| binding [1] | binding [2] | Substance |
| --- | --- | --- |
| binds |  | 6xHis-eGFP-hnRNPK fusion (full-length wild-type hnRNPK) (from UniProt P61978 1-463) |
|  | no binding | Heterogeneous nuclear ribonucleoprotein K (hnRNPK), full-length wild type with an additional N-terminal glycine (from UniProt P61978 1-463) |
